Changes are numbered by the printed parent chain. Names and notes keep the numbering of the source. Results are given in words; binding and its absence hold for the method and conditions named. In cells and extracts the contact can be indirect. Some results given as binding are weak or reduced against the parent protein; the word gives no strength. For some assays here: Where a sequence is shown, tags or fusion partners need not be part of it.

Chains of the proteins cited; added tags and fusions are not shown.
UniProt Q9NWV8: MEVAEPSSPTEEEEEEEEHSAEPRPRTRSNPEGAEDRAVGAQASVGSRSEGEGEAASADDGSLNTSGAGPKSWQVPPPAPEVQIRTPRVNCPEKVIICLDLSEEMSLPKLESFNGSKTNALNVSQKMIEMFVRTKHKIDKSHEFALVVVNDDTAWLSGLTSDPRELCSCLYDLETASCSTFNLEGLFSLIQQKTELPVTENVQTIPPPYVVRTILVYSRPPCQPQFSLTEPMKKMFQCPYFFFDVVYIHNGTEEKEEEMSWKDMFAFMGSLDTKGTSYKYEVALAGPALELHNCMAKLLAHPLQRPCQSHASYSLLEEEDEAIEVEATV

Five molecules from paper PMC10425285 can be followed below.

In assay [1] the target is T1, endogenous WWOX (MCF7) (human (endogenous in MCF7)) (UniProt Q9NZC7).
T1 sequence: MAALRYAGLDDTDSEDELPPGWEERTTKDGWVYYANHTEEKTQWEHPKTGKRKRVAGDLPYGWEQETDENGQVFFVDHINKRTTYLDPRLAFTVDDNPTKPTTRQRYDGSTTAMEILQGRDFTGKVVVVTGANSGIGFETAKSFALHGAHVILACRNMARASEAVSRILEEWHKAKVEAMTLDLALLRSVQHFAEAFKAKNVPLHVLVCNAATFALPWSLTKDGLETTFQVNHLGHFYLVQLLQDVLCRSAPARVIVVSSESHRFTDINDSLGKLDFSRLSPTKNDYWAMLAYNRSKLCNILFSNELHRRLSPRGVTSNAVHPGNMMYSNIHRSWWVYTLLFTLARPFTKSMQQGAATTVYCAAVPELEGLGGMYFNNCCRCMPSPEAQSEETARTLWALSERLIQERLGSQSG
The experiment in a line: co-IP; endogenous proteins; MCF7 cell extract with 800 µg of total proteins immunoprecipitated with anti-WWOX antibody; immunoblot with anti-MERIT40 and anti-WWOX.

The target in a further assay is HA-MERIT40 (UniProt Q9NWV8). Put plainly: co-IP; HEK293 cells transfected with HA-MERIT40 and Flag-Tankyrase, with or without Myc-WWOX or Myc-WWOX_(Y33R) (IP anti-HA), or after siRNA control or siRNA WWOX (IP anti-Flag); immunoblot.
Another assay deals with Flag-MERIT40 (UniProt Q9NWV8). The experiment in a line: co-IP; HEK293 cells transiently transfected with two tagged proteins; immunoprecipitation with anti-Flag antibody; immunoblot of immunoprecipitates and lysates.

“endogenous MERIT40 (MCF7) (from UniProt Q9NWV8 1-329)”: the binding result in assay [1] is reported as “binds”.

B1: Myc-WWOX_(Y33R) (protein, UniProt Q9NZC7 1-414)
chain: T1 sequence with Y33R
In the case of B1, in the assay with HA-MERIT40, the binding entry is recorded as “binds”.

B2: Myc-WWOX (protein, UniProt Q9NZC7 1-414)
chain: T1 sequence
Consider B2, for which the binding result with HA-MERIT40 is recorded as “binds”.

B3: HA-WWOX_(Y33R) (protein, UniProt Q9NZC7 1-414)
chain: T1 sequence with Y33R
Consider B3, for which, in the assay with Flag-MERIT40, the binding result is recorded as “binds”.

B4: HA-WWOX (protein, UniProt Q9NZC7 1-414)
chain: T1 sequence
For B4, in the assay with Flag-MERIT40, the binding entry is on record as “binds”.
